Data as given in PubChem BioAssay AID1224830 (NIAID, 2016).
Purpose: 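Host factors that control LPS-induced TNF expression in human macrophages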 (primary screen). Cells: human THP-1 monocytic leukaemia cells, TNF dual-luciferase reporter clone, PMA-differentiated to macrophage-like cells. Reagents: siRNA pool against human genes, 50 nM. Timing: LPS for 4 h, given about 3 days after siRNA transfection. Conditions: bacterial LPS (TLR4 ligand), 10 ng/ml. Measured: 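Ratio of firefly to renilla light, scaled to the plate median and expressed as a robust z-score per replicate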. Scale: TNF reporter robust z-score: higher = stronger TNF reporter response to LPS. Active means: 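a well is active when its z-score exceeds 2.8 or falls below -1.5; control wells carry no call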.
Shown is an unselected part of about 18,000 deposited reagents. About 2,900 of them (16%) were called active. 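Calls are made per well; low scores hint the gene aids the LPS response, high scores that it dampens it.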 Repeated entries: four replicate wells of each siRNA pool.

After knock-down of DDX20, the record shows TNF reporter robust z-score -0.57; inactive. DDX20 gave TNF reporter robust z-score -0.2; inactive. DDX20 scored TNF reporter robust z-score 0.01; inactive. DDX20 gave TNF reporter robust z-score -0.11; inactive. Depletion of TAGLN3 resulted in: TNF reporter robust z-score 1.72; inactive. Depletion of TAGLN3 came out at: TNF reporter robust z-score 1.64; inactive.

Against TAGLN3 the deposit lists TNF reporter robust z-score 1.71; inactive. With knock-down of TAGLN3 the results were TNF reporter robust z-score 0.07; inactive. ARSI gave TNF reporter robust z-score 5.72; active. ARSI showed TNF reporter robust z-score -1.51; active. Against ARSI, the values are TNF reporter robust z-score -1.58; active. After knock-down of ARSI, the record shows TNF reporter robust z-score -1.53; active.

CCDC146 showed TNF reporter robust z-score -0.99; inactive. For CCDC146 the deposit lists TNF reporter robust z-score -0.05; inactive. For CCDC146 the deposit lists TNF reporter robust z-score -0.52; inactive. After knock-down of CCDC146 the results were TNF reporter robust z-score 0.06; inactive. Against IFNA10, the values are TNF reporter robust z-score 1.93; inactive. With knock-down of IFNA10 the results were TNF reporter robust z-score 0.92; inactive.

Against IFNA10, the entry reads TNF reporter robust z-score 0.42; inactive. For IFNA10, the values are TNF reporter robust z-score 0.16; inactive. Against ZNF646, the entry reads TNF reporter robust z-score -0.36; inactive. With knock-down of ZNF646, the record shows TNF reporter robust z-score -0.11; inactive. Silencing of ZNF646 resulted in: TNF reporter robust z-score -0.51; inactive. After knock-down of ZNF646, the record shows TNF reporter robust z-score 0.14; inactive.

Against KCTD12, the entry reads TNF reporter robust z-score -0.64; inactive. KCTD12 scored TNF reporter robust z-score -0.25; inactive. With knock-down of KCTD12, the screen gave TNF reporter robust z-score -0.62; inactive. After knock-down of KCTD12 the results were TNF reporter robust z-score -0.68; inactive. CEP128 gave TNF reporter robust z-score 1.32; inactive. CEP128 showed TNF reporter robust z-score -0.01; inactive.

Against CEP128 the deposit lists TNF reporter robust z-score -1.21; inactive. With knock-down of CEP128, the record shows TNF reporter robust z-score 0.69; inactive. GOT1 showed TNF reporter robust z-score -0.16; inactive. With knock-down of GOT1 the results were TNF reporter robust z-score 0.56; inactive. Against GOT1, the values are TNF reporter robust z-score 0.94; inactive. GOT1 gave TNF reporter robust z-score 0.72; inactive.

EDEM3 gave TNF reporter robust z-score 0.28; inactive. After knock-down of EDEM3, the record shows TNF reporter robust z-score 0.48; inactive. Against EDEM3, the values are TNF reporter robust z-score -0.97; inactive. EDEM3 scored TNF reporter robust z-score 1.66; inactive. With knock-down of SPATA7, the record shows TNF reporter robust z-score -0.73; inactive. Silencing of SPATA7 gave: TNF reporter robust z-score 0.24; inactive.

SPATA7 showed TNF reporter robust z-score 1.36; inactive. SPATA7 scored TNF reporter robust z-score 0.15; inactive. MRPS6 showed TNF reporter robust z-score 0; inactive. Depletion of MRPS6 came out at: TNF reporter robust z-score -0.6; inactive. Against MRPS6 the deposit lists TNF reporter robust z-score -0.11; inactive. After knock-down of MRPS6, the screen gave TNF reporter robust z-score -0.29; inactive.

Silencing of VLDLR resulted in: TNF reporter robust z-score -0.15; inactive. With knock-down of VLDLR the results were TNF reporter robust z-score 2.52; inactive. After knock-down of VLDLR, the record shows TNF reporter robust z-score -0.01; inactive. Against VLDLR, the values are TNF reporter robust z-score 3.67; active. With knock-down of PCDH7, the screen gave TNF reporter robust z-score -0.76; inactive. With knock-down of PCDH7, the screen gave TNF reporter robust z-score -0.45; inactive.

With knock-down of PCDH7 the results were TNF reporter robust z-score 0.52; inactive. For PCDH7, the entry reads TNF reporter robust z-score -0.18; inactive. Depletion of SPATA31D1 gave: TNF reporter robust z-score -0.89; inactive. Silencing of SPATA31D1 resulted in: TNF reporter robust z-score -0.81; inactive. After knock-down of SPATA31D1, the record shows TNF reporter robust z-score -0.12; inactive. SPATA31D1 scored TNF reporter robust z-score -0.61; inactive.

Active calls, of those listed so far:
ARSI → TNF reporter robust z-score: 5.72; Call: active
ARSI → TNF reporter robust z-score: -1.51; Call: active
ARSI → TNF reporter robust z-score: -1.58; Call: active
ARSI → TNF reporter robust z-score: -1.53; Call: active
VLDLR → TNF reporter robust z-score: 3.67; Call: active
